In PubChem BioAssay AID624297 (National Center for Advancing Translational Sciences (NCATS), 2012):
The campaign covered roughly 340,000 compounds. About 6,200 (1.8%) were called active. This list was built around the results that the source calls inconclusive (neither active nor inactive); the mix of calls is not that of the screen. Calls follow the shape of the dose curve; as a rule, active = well fitted activation curve with a large enough effect; inconclusive = small, poorly fitted or top-dose-only effect; inactive = no such curve, though single readings can be large or run the other way. Potencies of inconclusive entries are doubtful fits and often do not repeat. The source holds several records for some structures; these can differ, active in one and inactive in another.

Experiment: A quantitative high throughput screen for small molecules that induce DNA re-replication in SW480 colon adenocarcinoma cells. Also: nearly all actives have a fitted effect of over 55% in size.
Settings: Hoechst DNA content imaging, 48 h; series mostly up to 46.1 µM
Summary of the method: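 Quantitative HTS format with DMSO vehicle controls; 48 hr drug incubation at 37 C, then 40 min Hoechst staining and scanning imager measurement at 405 nm excitation.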
Potency is read from the fitted curve at half-maximal effect.

Row | Compound | Potency
1 | CN1CCN(c2ccc(C(F)(F)F)cc2NC(=O)c2ccco2)CC1 | inactive
2 | Cc1cc(N2CCCC2)nc2ccc(NC(=S)NCCCN3CCC(C)CC3)cc12 | inconclusive: 23.1 µM [activator, single point]
3 | COc1ccc(CNC(=O)CN2CCN(S(=O)(=O)c3c(C)c(C)cc(C)c3C)CC2)cc1OC | inactive
4 | COc1ccc(NC(=O)CN2CCN(Cc3ccc4c(c3)OCO4)CC2)cc1OC | inactive
5 | CCS(=O)(=O)N1N=C(c2cccc(NS(C)(=O)=O)c2)CC1c1ccc(C)cc1 (stereo unspecified) | inactive
6 | Oc1ccc(/C=N/NC(=S)NCCN2CCOCC2)c(O)c1 | inconclusive: 10.3 µM [activator, partial curve, poor fit]
7 | O=S(=O)(c1cccc(-c2nc3n(n2)Cc2ccccc2-3)c1)N1CCCC1 | inconclusive: 6.51 µM [activator, single point]
8 | CC(=O)Nc1ccc(SC[C@H](CC(C)C)N2CCN(CC(C)C)CCC2=O)cc1 | inconclusive: 0.206 µM [activator, full curve, poor fit]
9 | Cn1cccc1/C=N/NC(=O)Cc1cccs1 | inconclusive: 0.146 µM [activator, full curve, poor fit]
10 | Cc1ccc(NC(=O)c2cc(NC(=O)c3ccco3)ccc2N2CCOCC2)cc1Cl | inactive
11 | C=CCOC(=O)C1=C(C)Nc2nnnn2C1c1cccs1 (stereo unspecified) | inconclusive: 29.1 µM [activator, single point]
12 | CCc1nnc(NC(=O)CN2CCN(Cc3ccc(C)cc3)CC2)s1 | inconclusive: 29.1 µM [activator, single point]
13 | COc1cc(CN2CCC(CO)(Cc3cccc(C(F)(F)F)c3)CC2)ccc1F | inconclusive: 29.1 µM [activator, single point]
14 | Oc1ccccc1-c1nc2c3ccccc3c3ccccc3c2[nH]1 | inconclusive: 18.4 µM [activator, single point]
15 | CCc1c(C)nc(Nc2nc(C)c3cc(OC)ccc3n2)[nH]c1=O | inactive
16 | CC(=O)c1nn(-c2cccc(Br)c2)cc1C(=O)c1ccc(Br)cc1 | inconclusive: 3.26 µM [activator, full curve, poor fit]
17 | COc1ccc(N2CCN(C3CCCN(Cc4ccccc4OCCO)C3)CC2)cc1 (stereo unspecified) | inconclusive: 1.64 µM [activator, partial curve, poor fit]
18 | CCN1CCC(O)(C(C(=O)OC)c2ccccc2)CC1 (stereo unspecified) | inactive
19 | O=C(COc1ccc2ccc(=O)oc2c1)OCc1ccccc1 | inconclusive: 29.1 µM [activator, single point]
20 | COc1ccc(NC(=O)c2ccc(CN3CCN(c4ccccc4)CC3)cc2)cc1 | inactive
21 | CN1c2ccccc2C(C)(C)[C@]12C=Cc1cc(O)ccc1O2 | inconclusive: 20.6 µM [activator, single point]
22 | CCc1ccc(C(C(=O)NC(C)(C)CC)N(Cc2ccco2)C(=O)Cn2nnc3ccccc32)cc1 (stereo unspecified) | inactive

A draw from above in order of length of the SMILES, descending.
Row | Compound | Potency
22 | CCc1ccc(C(C(=O)NC(C)(C)CC)N(Cc2ccco2)C(=O)Cn2nnc3ccccc32)cc1 (stereo unspecified) | inactive
3 | COc1ccc(CNC(=O)CN2CCN(S(=O)(=O)c3c(C)c(C)cc(C)c3C)CC2)cc1OC | inactive
5 | CCS(=O)(=O)N1N=C(c2cccc(NS(C)(=O)=O)c2)CC1c1ccc(C)cc1 (stereo unspecified) | inactive
8 | CC(=O)Nc1ccc(SC[C@H](CC(C)C)N2CCN(CC(C)C)CCC2=O)cc1 | inconclusive: 0.206 µM [activator, full curve, poor fit]
10 | Cc1ccc(NC(=O)c2cc(NC(=O)c3ccco3)ccc2N2CCOCC2)cc1Cl | inactive
7 | O=S(=O)(c1cccc(-c2nc3n(n2)Cc2ccccc2-3)c1)N1CCCC1 | inconclusive: 6.51 µM [activator, single point]
2 | Cc1cc(N2CCCC2)nc2ccc(NC(=S)NCCCN3CCC(C)CC3)cc12 | inconclusive: 23.1 µM [activator, single point]
16 | CC(=O)c1nn(-c2cccc(Br)c2)cc1C(=O)c1ccc(Br)cc1 | inconclusive: 3.26 µM [activator, full curve, poor fit]
15 | CCc1c(C)nc(Nc2nc(C)c3cc(OC)ccc3n2)[nH]c1=O | inactive
21 | CN1c2ccccc2C(C)(C)[C@]12C=Cc1cc(O)ccc1O2 | inconclusive: 20.6 µM [activator, single point]
14 | Oc1ccccc1-c1nc2c3ccccc3c3ccccc3c2[nH]1 | inconclusive: 18.4 µM [activator, single point]
6 | Oc1ccc(/C=N/NC(=S)NCCN2CCOCC2)c(O)c1 | inconclusive: 10.3 µM [activator, partial curve, poor fit]
19 | O=C(COc1ccc2ccc(=O)oc2c1)OCc1ccccc1 | inconclusive: 29.1 µM [activator, single point]
11 | C=CCOC(=O)C1=C(C)Nc2nnnn2C1c1cccs1 (stereo unspecified) | inconclusive: 29.1 µM [activator, single point]
18 | CCN1CCC(O)(C(C(=O)OC)c2ccccc2)CC1 (stereo unspecified) | inactive
9 | Cn1cccc1/C=N/NC(=O)Cc1cccs1 | inconclusive: 0.146 µM [activator, full curve, poor fit]

Carrying on.

Row | Compound | Potency
23 | COc1ccc(C(=O)NNC(=O)C(C)NC(=O)c2ccccc2NC(=O)c2ccco2)cc1 (stereo unspecified) | inactive
24 | C=CCn1c(=O)[nH]c2cc(C(=O)N3CCN(c4cc(C)ccc4C)CC3)ccc2c1=O | inconclusive: 9.2 µM [activator, partial curve, poor fit]
25 | O=C(COC(=O)c1ccc(F)c(S(=O)(=O)N2CCOCC2)c1)c1ccccc1 | inconclusive: 29.1 µM [activator, single point]
26 | CCc1ccc(C(CNC(=O)c2ccc3c(=O)n(-c4ccccc4F)c(=S)[nH]c3c2)N(C)C)cc1 (stereo unspecified) | inconclusive: 20.6 µM [activator, single point]
27 | COc1cccc(CN2C(=NC(=O)CCC3CCCC3)SC3CS(=O)(=O)CC32)c1 (stereo unspecified) | inactive
28 | Cc1cc(C)c2c(CC(=O)NCc3ccco3)coc2c1 | inactive
29 | Cc1nc2ccccc2n1S(=O)(=O)c1ccc(Br)cc1 | inconclusive: 6.51 µM [activator, single point]
30 | CN1C(=O)/C(=C\c2ccccc2F)Sc2ccc(C(=O)NC3CCN(Cc4ccccc4)CC3)cc21 | active: 20.6 µM
31 | CCCc1cc(NCc2ccccn2)n2nc(C)c(-c3ccccc3)c2n1 | active: 3.26 µM
32 | COCC(=O)N(CCc1ccc(OC)cc1)Cc1nc2ccccc2c(=O)[nH]1 | inconclusive: 23.1 µM [activator, single point]
33 | CC(C)Cn1nc(NC(=O)C(C)(C)C)c2cc3ccccc3nc21 | inconclusive: 25.9 µM [activator, single point]
34 | CCOc1c(Cl)cc(C(=O)NCCN2CCCCC2)cc1Cl | inconclusive: 16.4 µM [activator, single point]
35 | CCCCCCCCCCCCCCCCCCCCCC(=O)Nc1ccn([C@@H]2O[C@H](CO)[C@@H](O)[C@@H]2O)c(=O)n1 | inconclusive: 33.5 µM [activator, partial curve, poor fit]
36 | CCCn1nnc(NC(=S)NC(=O)Cc2ccccc2)n1 | inconclusive: 20.6 µM [activator, single point]
37 | CC(C)CN(C(=O)COC(=O)/C=C/c1ccc(Cl)c(Cl)c1)c1c(N)n(Cc2ccccc2)c(=O)[nH]c1=O | inconclusive: 20.6 µM [activator, single point]
38 | CN1CCN(C(=O)c2ccc(COc3cc(Cl)ccc3Cl)o2)CC1 | inconclusive: 1.12 µM [activator, partial curve, poor fit]
39 | CCN(C[C@H]1N[C@@](C)(C(=O)OC)[C@H]2C(=O)N(C)C(=O)[C@@H]12)C(=O)c1ccc(C(C)(C)C)cc1 | inconclusive: 1.46 µM [activator, partial curve, poor fit]
40 | COCCNC(=O)C(c1cccs1)N(C(=O)Cn1nnc2ccccc21)c1ccc(OC)cc1 (stereo unspecified) | inconclusive: 29.1 µM [activator, single point]
41 | CC(C)(C)Nc1nc(Cl)nc(NC(C)(C)C)n1 | inconclusive: 32.6 µM [activator, single point]
42 | CN[C@H](C(=O)NC[C@H]1O[C@@H](n2cnc3c(N)ncnc32)[C@H](O)[C@@H]1O)[C@@H](C)OCc1ccccc1 | inconclusive: 29.1 µM [activator, single point]
43 | O=C(Nc1ccc(S(=O)(=O)Nc2ccccn2)cc1)c1ccc(Cl)cc1Cl | inactive
44 | CN(CC(=O)Nc1cccc(F)c1)C(=O)CN1C(=O)NC2(CCCCC2)C1=O | inconclusive: 29.1 µM [activator, partial curve, poor fit]

Row | Compound | Potency
45 | O=C(Nc1ccccc1)NC1CCN(Cc2ccccc2)CC1 | inconclusive: 29.1 µM [activator, single point]
46 | CC(=O)Nc1ccc(NC(=O)CSc2nnc(NC(=O)c3cccc(F)c3)s2)cc1 | inactive
47 | CC(C)CN(C(=O)COc1ccc([N+](=O)[O-])cc1)c1c(N)n(CC(C)C)c(=O)[nH]c1=O | inconclusive: 0.13 µM [activator, full curve, poor fit]
48 | CCOc1ccc(-n2c(SCC(=O)Nc3ccc(Br)cc3)nc3n[nH]c(C)c3c2=N)cc1 | inconclusive: 23.1 µM [activator, single point]
49 | O=C(O)CN(CCN(CC(=O)O)CC(=O)O)CCN(CC(=O)O)CC(=O)O | active: 23.7 µM
50 | COc1cc(/C=N/n2cnnc2)ccc1OC(=O)c1cccnc1 | inconclusive: 23.1 µM [activator, partial curve, poor fit]
51 | COc1ccc(NC(=O)Nc2ccc(O)c3ccccc23)cc1 | inconclusive: 20.6 µM [activator, single point]
52 | CC(=O)C1CCC2C3CCC4CC(=O)CCC4(C)C3C(O)CC12C (stereo unspecified) | inactive
53 | CSc1ccccc1NC(=S)NC1CCCC1 | inconclusive: 23.1 µM [activator, single point]
54 | COc1ccccc1CNCc1cc(=O)oc2c(C)c(C)ccc12 | inconclusive: 29.1 µM [activator, single point]
55 | Nc1nc(CSC(=S)N2CCOCC2)nc(Nc2ccccc2)n1 | inconclusive: 23.1 µM [activator, single point]
56 | O=C(Nc1cc(C(F)(F)F)ccc1N1CCOCC1)c1ccc(Br)o1 | inactive
57 | C[C@H](CO)N1C[C@H](C)[C@@H](CN(C)CC2CC2)Oc2c(NC(=O)C3CC3)cccc2C1=O | inconclusive: 2.31 µM [activator, single point]
58 | CCOC(=O)c1ccc(S(=O)(=O)N2CCC(C(=O)NCC3CCCCC3)CC2)cc1 | inconclusive: 0.13 µM [activator, full curve, poor fit]
59 | Cc1cc(C)n(C(=O)CN2C(=O)COc3ccccc32)n1 | inconclusive: 4.11 µM [activator, partial curve, poor fit]
60 | O=C(c1cccc(C(F)(F)F)c1)C1CCCN(C(=O)/C=C/c2cnc[nH]2)C1 (stereo unspecified) | inactive
61 | Cc1ccc(/C=N/N2CCN(C3c4ccccc4-c4ccccc43)CC2)s1 | inconclusive: 29.1 µM [activator, single point]
62 | O=C(COC(=O)CNS(=O)(=O)c1ccc(F)c(F)c1F)NCCc1ccccc1 | inconclusive: 3.26 µM [activator, single point]
63 | O=[N+]([O-])c1cc(Cl)ccc1Sc1ccccn1 | inactive
64 | C=CCn1c(-c2ccc(Cl)cc2)c[nH]c1=S | inconclusive: 20.6 µM [activator, single point]
65 | O=C(Nc1ccccc1C(=O)NCc1ccco1)c1ccco1 | inconclusive: 6.51 µM [activator, partial curve, poor fit]
66 | CN(C)S(=O)(=O)c1cccc(C(=O)NCC2CCCCC2)c1 | inconclusive: 29.1 µM [activator, single point]

Individual results from the results shown.
For Potency, CC(C)Cn1nc(NC(=O)C(C)(C)C)c2cc3ccccc3nc21 is listed with inconclusive: 25.9 µM [activator, single point]
For Potency, CCN1CCC(O)(C(C(=O)OC)c2ccccc2)CC1 (stereo unspecified) is listed with inactive
